Record: PubChem BioAssay AID1259405 (NCATS, 2018)
Here is a random part of about 50,000 reagents. Of all reagents, about 4,000 (8%) are marked active. 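Mouse siRNA library applied to hamster cells; one well for each siRNA.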 Unmarked entries are inactive. Reagents against one gene are numbered here.

Purpose: 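Silenced genes that increase secreted GFP made by CHO cells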 (primary screen)
System: Chinese hamster CHO-K1 ovary cells with stable secreted eGFP expression
Reagents: single siRNA against mouse genes, 0.8 pmol siRNA per well (2 µl of 400 nM stock)
Time to read-out: 3 days
Measured: 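Percent of the per-plate non-targeting control median for intracellular GFP per well by laser scanning cytometry and for cell viability by ATP luminescence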
Scale: GFP, % of control: higher = more GFP per well, higher productivity; viability (ATP), % of control: higher = more viable cells (more ATP)
Rule for the call: 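a knock-down is called active if GFP reaches 120% or more of non-targeting control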

Limk2 #1 — GFP, % of control = 99.4; viability (ATP), % of control = 53.4
Limk2 #2 — GFP, % of control = 40.2; viability (ATP), % of control = 55.4
Limk2 #3 — GFP, % of control = 67.3; viability (ATP), % of control = 72.9
Cdcp1 #1 — GFP, % of control = 84.6; viability (ATP), % of control = 101
Cdcp1 #2 — GFP, % of control = 79.7; viability (ATP), % of control = 36.9
Cdcp1 #3 — GFP, % of control = 59; viability (ATP), % of control = 66.3
C230013L11Rik #1 — GFP, % of control = 67.7; viability (ATP), % of control = 69.8
C230013L11Rik #2 — GFP, % of control = 82.7; viability (ATP), % of control = 88.3
C230013L11Rik #3 — GFP, % of control = 88.3; viability (ATP), % of control = 137
Kctd5 #1 — GFP, % of control = 78.5; viability (ATP), % of control = 136
Kctd5 #2 — GFP, % of control = 95.2; viability (ATP), % of control = 53.8
Bet1l #1 — GFP, % of control = 51.7; viability (ATP), % of control = 44.8
Bet1l #2 — GFP, % of control = 90.7; viability (ATP), % of control = 82
Bet1l #3 — GFP, % of control = 67.3; viability (ATP), % of control = 71.1
Odc1 #1 — GFP, % of control = 83.1; viability (ATP), % of control = 48.6
Odc1 #2 — GFP, % of control = 95.2; viability (ATP), % of control = 64.4
Aplf #1 — GFP, % of control = 124 (active); viability (ATP), % of control = 50.6
Aplf #2 — GFP, % of control = 81.8; viability (ATP), % of control = 100
Aplf #3 — GFP, % of control = 71.8; viability (ATP), % of control = 80.6
Lrrtm2 #1 — GFP, % of control = 91.3; viability (ATP), % of control = 110
Lrrtm2 #2 — GFP, % of control = 72; viability (ATP), % of control = 83.5
Lrrtm2 #3 — GFP, % of control = 88.7; viability (ATP), % of control = 94.8

Records above whose target name starts with L or l:
Limk2 #1 — GFP, % of control = 99.4; viability (ATP), % of control = 53.4
Limk2 #2 — GFP, % of control = 40.2; viability (ATP), % of control = 55.4
Limk2 #3 — GFP, % of control = 67.3; viability (ATP), % of control = 72.9
Lrrtm2 #1 — GFP, % of control = 91.3; viability (ATP), % of control = 110
Lrrtm2 #2 — GFP, % of control = 72; viability (ATP), % of control = 83.5
Lrrtm2 #3 — GFP, % of control = 88.7; viability (ATP), % of control = 94.8

Further reagents:
Snx8 #1 — GFP, % of control = 61; viability (ATP), % of control = 97.5
Snx8 #2 — GFP, % of control = 85.7; viability (ATP), % of control = 78.2
Tenm1 #1 — GFP, % of control = 62.6; viability (ATP), % of control = 34.3
Tenm1 #2 — GFP, % of control = 73.5; viability (ATP), % of control = 90
Tenm1 #3 — GFP, % of control = 59.2; viability (ATP), % of control = 76.4
Fam72a #1 — GFP, % of control = 59; viability (ATP), % of control = 68.3
Fam72a #2 — GFP, % of control = 58.3; viability (ATP), % of control = 78.5
Fam72a #3 — GFP, % of control = 72; viability (ATP), % of control = 76.3
Or5j3 #1 — GFP, % of control = 76.3; viability (ATP), % of control = 79
Or5j3 #2 — GFP, % of control = 71.7; viability (ATP), % of control = 81
Or5j3 #3 — GFP, % of control = 77.2; viability (ATP), % of control = 74.8
Helt #1 — GFP, % of control = 69.4; viability (ATP), % of control = 69.4
Helt #2 — GFP, % of control = 48.6; viability (ATP), % of control = 25.9
Helt #3 — GFP, % of control = 74.7; viability (ATP), % of control = 81.4
Grm1 #1 — GFP, % of control = 66.5; viability (ATP), % of control = 85.6
Grm1 #2 — GFP, % of control = 90.2; viability (ATP), % of control = 85.2
Grm1 #3 — GFP, % of control = 51.3; viability (ATP), % of control = 63.9
Klri1 #1 — GFP, % of control = 77.8; viability (ATP), % of control = 69.3
Klri1 #2 — GFP, % of control = 110; viability (ATP), % of control = 50.3
Klri1 #3 — GFP, % of control = 94.8; viability (ATP), % of control = 80.8
